Reference: the supplement of paper PMC11006884
Only a part is listed here, and it is no random draw.

Protein sequences, listed by entry. Tags and fused reporters are not part of them. Lines headed by an entry give the natural chain unless they say otherwise; changes in a name come on top.
UniProt P13861, whole entry, looked up: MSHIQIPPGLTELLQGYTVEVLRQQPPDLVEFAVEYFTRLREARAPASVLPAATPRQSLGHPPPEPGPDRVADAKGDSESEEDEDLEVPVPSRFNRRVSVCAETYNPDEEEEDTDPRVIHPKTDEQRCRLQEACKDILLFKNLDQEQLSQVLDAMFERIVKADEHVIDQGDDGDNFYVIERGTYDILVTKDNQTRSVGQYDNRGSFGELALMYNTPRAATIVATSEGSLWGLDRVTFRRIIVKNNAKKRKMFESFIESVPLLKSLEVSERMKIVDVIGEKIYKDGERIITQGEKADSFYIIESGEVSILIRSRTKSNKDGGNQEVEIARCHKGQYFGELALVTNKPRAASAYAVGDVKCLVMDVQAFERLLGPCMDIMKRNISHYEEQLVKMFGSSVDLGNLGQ
UniProt P09874, whole entry, looked up: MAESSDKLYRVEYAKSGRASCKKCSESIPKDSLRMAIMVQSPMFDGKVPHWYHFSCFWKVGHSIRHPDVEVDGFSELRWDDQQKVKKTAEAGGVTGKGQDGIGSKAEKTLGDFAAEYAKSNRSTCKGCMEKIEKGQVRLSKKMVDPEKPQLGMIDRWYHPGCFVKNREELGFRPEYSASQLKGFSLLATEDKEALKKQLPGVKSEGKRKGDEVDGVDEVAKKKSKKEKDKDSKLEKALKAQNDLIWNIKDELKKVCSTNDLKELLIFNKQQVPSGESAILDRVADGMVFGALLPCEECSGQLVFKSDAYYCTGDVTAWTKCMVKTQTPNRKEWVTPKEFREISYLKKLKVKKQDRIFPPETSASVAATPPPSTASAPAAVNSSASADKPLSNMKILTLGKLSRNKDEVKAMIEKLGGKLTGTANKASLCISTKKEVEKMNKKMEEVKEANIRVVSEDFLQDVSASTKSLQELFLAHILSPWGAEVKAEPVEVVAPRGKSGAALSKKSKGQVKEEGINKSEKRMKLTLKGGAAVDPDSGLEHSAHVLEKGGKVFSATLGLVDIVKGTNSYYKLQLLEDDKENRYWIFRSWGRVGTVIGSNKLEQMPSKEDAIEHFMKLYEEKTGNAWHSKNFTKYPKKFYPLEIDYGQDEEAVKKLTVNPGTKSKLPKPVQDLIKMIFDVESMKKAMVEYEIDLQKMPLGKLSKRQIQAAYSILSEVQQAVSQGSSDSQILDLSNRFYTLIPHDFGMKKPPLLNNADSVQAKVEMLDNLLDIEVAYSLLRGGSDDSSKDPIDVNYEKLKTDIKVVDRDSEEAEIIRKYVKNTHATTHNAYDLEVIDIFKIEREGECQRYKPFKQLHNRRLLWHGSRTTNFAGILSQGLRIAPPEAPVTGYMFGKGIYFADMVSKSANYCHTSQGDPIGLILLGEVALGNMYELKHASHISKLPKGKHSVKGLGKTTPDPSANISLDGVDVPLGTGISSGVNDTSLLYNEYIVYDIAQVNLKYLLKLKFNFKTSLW
UniProt P09211: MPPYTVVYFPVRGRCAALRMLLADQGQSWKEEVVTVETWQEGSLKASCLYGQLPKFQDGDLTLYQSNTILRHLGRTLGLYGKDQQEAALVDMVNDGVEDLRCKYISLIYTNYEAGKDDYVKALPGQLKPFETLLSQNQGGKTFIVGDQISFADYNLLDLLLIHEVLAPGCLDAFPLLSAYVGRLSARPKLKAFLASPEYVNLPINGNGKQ
UniProt P09234, whole entry, looked up: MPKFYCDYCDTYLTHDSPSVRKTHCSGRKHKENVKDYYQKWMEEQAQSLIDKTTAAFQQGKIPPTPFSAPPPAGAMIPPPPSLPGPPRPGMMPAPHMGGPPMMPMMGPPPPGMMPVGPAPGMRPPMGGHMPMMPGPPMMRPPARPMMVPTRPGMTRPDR
UniProt P12955: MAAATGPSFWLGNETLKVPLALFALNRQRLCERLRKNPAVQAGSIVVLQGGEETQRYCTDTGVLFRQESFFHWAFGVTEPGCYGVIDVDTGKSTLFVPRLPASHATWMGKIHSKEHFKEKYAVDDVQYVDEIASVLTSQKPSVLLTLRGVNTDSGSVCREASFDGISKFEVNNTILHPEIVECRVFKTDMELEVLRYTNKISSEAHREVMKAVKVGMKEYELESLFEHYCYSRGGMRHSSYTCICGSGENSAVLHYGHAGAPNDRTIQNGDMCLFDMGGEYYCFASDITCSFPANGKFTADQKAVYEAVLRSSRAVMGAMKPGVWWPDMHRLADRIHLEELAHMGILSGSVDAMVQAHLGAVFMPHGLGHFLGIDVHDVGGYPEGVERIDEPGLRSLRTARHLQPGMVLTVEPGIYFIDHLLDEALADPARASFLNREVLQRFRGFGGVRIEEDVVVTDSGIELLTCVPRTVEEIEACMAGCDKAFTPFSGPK
UniProt P07947, whole entry, looked up: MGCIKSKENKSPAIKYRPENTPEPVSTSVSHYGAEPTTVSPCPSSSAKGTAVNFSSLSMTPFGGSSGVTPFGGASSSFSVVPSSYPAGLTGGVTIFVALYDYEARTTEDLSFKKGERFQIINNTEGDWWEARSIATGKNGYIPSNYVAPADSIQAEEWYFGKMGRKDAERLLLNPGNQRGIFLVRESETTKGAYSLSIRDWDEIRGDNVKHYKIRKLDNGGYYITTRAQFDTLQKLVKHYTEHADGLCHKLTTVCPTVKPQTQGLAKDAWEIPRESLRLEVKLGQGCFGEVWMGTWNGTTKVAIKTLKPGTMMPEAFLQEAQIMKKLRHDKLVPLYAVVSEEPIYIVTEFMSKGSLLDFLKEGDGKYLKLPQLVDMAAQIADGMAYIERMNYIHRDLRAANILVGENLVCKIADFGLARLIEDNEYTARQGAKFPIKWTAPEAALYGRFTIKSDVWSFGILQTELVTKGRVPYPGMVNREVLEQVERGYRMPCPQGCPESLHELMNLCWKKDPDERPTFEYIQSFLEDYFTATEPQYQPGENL
UniProt P10768: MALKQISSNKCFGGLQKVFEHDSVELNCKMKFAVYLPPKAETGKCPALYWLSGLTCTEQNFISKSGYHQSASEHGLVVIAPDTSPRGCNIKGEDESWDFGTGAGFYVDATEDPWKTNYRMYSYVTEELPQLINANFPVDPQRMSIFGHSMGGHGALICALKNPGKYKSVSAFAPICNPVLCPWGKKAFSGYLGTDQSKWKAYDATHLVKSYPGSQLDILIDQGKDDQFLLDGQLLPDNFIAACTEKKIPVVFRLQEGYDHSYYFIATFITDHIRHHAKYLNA
UniProt P12814, whole entry, looked up: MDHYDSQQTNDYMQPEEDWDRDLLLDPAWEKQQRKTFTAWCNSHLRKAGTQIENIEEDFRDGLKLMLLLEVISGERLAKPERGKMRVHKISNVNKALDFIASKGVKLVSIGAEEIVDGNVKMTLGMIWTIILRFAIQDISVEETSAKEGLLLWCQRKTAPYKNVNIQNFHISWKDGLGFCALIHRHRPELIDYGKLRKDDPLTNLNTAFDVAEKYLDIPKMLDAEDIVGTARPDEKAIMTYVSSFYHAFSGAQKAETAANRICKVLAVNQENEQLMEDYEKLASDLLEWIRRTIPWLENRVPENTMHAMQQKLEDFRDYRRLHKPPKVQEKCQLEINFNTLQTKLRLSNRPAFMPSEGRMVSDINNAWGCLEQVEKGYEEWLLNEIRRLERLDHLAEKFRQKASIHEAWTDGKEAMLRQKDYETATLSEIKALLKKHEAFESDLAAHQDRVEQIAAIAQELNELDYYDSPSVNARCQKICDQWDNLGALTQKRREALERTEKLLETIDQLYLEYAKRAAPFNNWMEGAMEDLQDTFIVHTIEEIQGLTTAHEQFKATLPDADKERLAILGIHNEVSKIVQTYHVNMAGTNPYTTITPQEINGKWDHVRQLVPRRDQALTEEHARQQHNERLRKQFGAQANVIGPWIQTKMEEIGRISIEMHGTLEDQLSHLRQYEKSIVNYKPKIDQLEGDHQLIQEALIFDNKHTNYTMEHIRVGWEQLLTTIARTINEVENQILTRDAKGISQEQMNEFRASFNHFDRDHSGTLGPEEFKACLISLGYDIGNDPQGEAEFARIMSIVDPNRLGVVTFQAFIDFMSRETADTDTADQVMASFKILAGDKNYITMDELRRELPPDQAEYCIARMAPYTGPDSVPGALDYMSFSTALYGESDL
UniProt P11586, whole entry, looked up: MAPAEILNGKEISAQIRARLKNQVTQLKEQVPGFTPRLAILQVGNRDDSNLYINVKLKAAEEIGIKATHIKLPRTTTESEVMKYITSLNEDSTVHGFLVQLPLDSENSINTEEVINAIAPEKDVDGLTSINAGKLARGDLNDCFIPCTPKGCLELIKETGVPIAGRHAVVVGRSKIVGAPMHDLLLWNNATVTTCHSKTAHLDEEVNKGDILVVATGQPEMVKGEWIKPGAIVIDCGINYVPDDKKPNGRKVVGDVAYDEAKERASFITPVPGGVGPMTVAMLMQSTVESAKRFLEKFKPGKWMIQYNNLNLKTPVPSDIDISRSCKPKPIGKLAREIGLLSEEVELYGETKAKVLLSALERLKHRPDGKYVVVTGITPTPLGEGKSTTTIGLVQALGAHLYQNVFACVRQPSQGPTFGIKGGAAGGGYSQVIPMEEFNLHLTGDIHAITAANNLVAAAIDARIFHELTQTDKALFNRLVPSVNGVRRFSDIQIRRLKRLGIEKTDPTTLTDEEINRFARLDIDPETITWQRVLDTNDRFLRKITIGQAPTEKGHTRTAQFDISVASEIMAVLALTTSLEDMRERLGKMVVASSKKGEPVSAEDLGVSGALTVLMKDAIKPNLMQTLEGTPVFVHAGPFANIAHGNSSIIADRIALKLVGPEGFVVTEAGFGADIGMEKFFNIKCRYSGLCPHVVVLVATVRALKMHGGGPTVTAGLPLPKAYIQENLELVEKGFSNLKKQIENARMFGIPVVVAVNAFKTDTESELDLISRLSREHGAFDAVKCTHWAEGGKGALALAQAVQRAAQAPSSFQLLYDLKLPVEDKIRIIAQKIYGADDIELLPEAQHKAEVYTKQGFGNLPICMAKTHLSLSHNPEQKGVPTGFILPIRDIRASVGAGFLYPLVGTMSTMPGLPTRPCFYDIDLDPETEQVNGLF
UniProt P08243: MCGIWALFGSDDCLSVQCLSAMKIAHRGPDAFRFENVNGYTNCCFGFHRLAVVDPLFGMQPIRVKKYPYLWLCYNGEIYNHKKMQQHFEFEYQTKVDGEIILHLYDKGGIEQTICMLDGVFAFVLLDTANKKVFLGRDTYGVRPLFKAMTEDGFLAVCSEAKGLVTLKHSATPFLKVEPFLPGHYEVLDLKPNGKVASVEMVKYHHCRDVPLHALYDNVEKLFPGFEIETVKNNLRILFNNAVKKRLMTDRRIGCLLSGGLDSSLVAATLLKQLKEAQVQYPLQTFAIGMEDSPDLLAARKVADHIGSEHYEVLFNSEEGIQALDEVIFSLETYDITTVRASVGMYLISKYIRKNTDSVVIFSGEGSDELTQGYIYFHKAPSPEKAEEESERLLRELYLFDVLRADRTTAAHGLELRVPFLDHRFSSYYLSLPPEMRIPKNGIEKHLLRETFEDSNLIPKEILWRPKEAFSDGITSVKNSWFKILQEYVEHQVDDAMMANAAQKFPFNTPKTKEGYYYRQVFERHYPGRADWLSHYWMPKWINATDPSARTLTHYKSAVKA
UniProt P16615: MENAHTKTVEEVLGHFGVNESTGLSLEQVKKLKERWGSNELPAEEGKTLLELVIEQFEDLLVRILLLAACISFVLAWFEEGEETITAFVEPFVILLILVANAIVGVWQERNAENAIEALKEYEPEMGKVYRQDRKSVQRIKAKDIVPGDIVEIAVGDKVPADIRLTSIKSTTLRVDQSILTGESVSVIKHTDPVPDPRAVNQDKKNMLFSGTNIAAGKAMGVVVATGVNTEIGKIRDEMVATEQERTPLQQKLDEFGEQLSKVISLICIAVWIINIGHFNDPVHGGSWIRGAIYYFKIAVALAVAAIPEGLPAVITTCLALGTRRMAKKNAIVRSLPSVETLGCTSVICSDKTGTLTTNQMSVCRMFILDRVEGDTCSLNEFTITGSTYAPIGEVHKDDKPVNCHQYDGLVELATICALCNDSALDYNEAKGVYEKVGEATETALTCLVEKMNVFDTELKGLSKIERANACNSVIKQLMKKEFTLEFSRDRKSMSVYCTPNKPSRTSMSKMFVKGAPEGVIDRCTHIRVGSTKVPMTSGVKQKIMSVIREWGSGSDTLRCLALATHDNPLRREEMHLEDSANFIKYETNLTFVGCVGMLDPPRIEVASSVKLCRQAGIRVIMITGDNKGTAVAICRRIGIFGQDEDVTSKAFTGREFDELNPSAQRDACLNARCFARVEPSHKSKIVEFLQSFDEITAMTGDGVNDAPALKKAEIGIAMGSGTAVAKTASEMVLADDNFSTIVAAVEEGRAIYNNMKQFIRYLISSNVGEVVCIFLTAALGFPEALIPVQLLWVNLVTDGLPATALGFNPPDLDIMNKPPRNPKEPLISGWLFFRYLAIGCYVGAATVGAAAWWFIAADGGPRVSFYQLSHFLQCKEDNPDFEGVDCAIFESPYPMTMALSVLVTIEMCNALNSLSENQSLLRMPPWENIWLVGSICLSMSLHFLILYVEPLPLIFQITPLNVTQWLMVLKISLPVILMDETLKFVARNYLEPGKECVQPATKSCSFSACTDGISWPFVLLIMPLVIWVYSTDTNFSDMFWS

Each target was assayed with COC(=O)C#Cc1ccccc1 [methyl 3-phenylpropiolate] (assay: log2 ratio of iodoacetamide-alkyne labeling of the cysteine site, DMSO over compound (competition); higher = stronger covalent engagement of the cysteine by the compound, active = 1 or more). Conditions: 500 µM; treatment time 1 h; system: HEK293T cell lysate.
Procedure, shortened: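 The log2 competition ratio per cysteine is defined as mean reporter intensity in control channels over mean reporter intensity in compound channels. Lysate from HEK293T cells (2 mg/mL) received electrophile (500 µM) or vehicle for 1 h at ambient temperature, followed by iodoacetamide alkyne for 1 h. Samples were clicked to sCIP-TMT reagents, pooled, trypsin-digested overnight at 37 °C, streptavidin-enriched, acid-eluted and run on Orbitrap Eclipse LC-MS/MS with FAIMS, with quantification in FragPipe. Three replicates with duplicate channels were used, and any cysteine quantified in only one replicate was excluded.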

log2 ratio of iodoacetamide-alkyne labeling, active:
CAPN2 C301 (UniProt P17655) 2.17
TXN C35 (UniProt P10599) 1.14

log2 ratio of iodoacetamide-alkyne labeling, inactive:
PRKAR2A C101 (UniProt P13861) 0.533
HSP90AA1 C598 (UniProt P07900) -0.0866
TOP1 C300 (UniProt P11387) -0.0183
ADH5 C97 (UniProt P11766) 0.0974
PARP1 C845 (UniProt P09874) 0.134
GSTP1 C102 (UniProt P09211) -0.0685
SNRPC C25 (UniProt P09234) 0.153
PEPD C482 (UniProt P12955) 0.545
XRCC5 C296 (UniProt P13010) 0.00146
Q95604 C188 (UniProt P10321) 0.298
U2AF1L5 C18 (UniProt P0DN76) 0.165
UniProt P07947_C42 0.434
EPRS C692 (UniProt P07814) 0.316
ESD C243 (UniProt P10768) 0.239
UniProt P10155_C71 0.136
ACTN1 C370 (UniProt P12814) 0.00377
PLS3 C463 (UniProt P13797) 0.42
IMPDH2 C173 (UniProt P12268) -0.326
EEF2 C812 (UniProt P13639) 0.148
SNRPB C19 (UniProt P14678) 0.238
Q95604 C125 (UniProt P10321) 0.505
U2AF1L5 C154 (UniProt P0DN76) -0.16
IMPDH2 C95 (UniProt P12268) -0.293
MTHFD1 C152 (UniProt P11586) -0.0756
IMPDH2 C339 (UniProt P12268) 0.563
CNP C158 (UniProt P09543) 0.417
RPS2 C222 (UniProt P15880) 0.255
CNP C111 (UniProt P09543) 0.0267
PARP1 C256 (UniProt P09874) 0.249
UniProt P0DMV8_C306 -0.0873
ASNS C255 (UniProt P08243) -0.158
PRKAR2A C128 (UniProt P13861) 0.00919
ACTN1 C774 (UniProt P12814) 0.0974
ATP2A2 C997 (UniProt P16615) 0.368
TPT1 C28 (UniProt P13693) 0.212

For convenience, some entries already given.
log2 ratio of iodoacetamide-alkyne labeling, inactive:
UniProt P10155_C71 0.136
ACTN1 C370 (UniProt P12814) 0.00377
